Values from PubChem BioAssay AID602196 (INSERM, 2012)
Test: 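Modifiers of cisplatin sensitivity in A549 cells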. Cell system: human A549 lung cancer cells. Knock-down reagent: siRNA pair against human genes. Timing: 48 h transfection before cisplatin; time from cisplatin to read-out not stated. Conditions: cisplatin at a dose killing half of control-siRNA cells; exact dose and duration not given. Detection: 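Shift in cisplatin death relative to control siRNA, from -50 (all cells die) to +50 (no cells die); siRNAs harmful on their own scored 0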. Scale: two-siRNA summed score (-2 to +2): higher = both siRNAs protect from cisplatin killing; -2 means both sensitise; mean protection from cisplatin (shift in death): higher = protection from cisplatin killing. Active means: 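Each siRNA scores 0 if harmful alone by LDH or WST-1, otherwise +1 if it reduces and -1 if it increases cisplatin killing; a gene is active when both siRNAs agree (sum +2 or -2)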. Meaning of the calls: active = both siRNAs shift cisplatin killing the same way; inactive = no consistent shift, or siRNA harmful alone.
Shown is a random part of about 23,000 reagents tested. In the full data, 455 (2%) were called active. 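Active includes both protection and sensitisation; some change values fall well beyond the stated -50 to +50 range.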 Further read-outs or replicates are left out here. Not stated in the record: the amount of reagent.

{"Target gene": "LOC196346", "two-siRNA summed score (-2 to +2)": 0, "mean protection from cisplatin (shift in death) (%)": 6.3, "call": "inactive"}
{"Target gene": "TMA7", "two-siRNA summed score (-2 to +2)": 0, "mean protection from cisplatin (shift in death) (%)": -5.1, "call": "inactive"}
{"Target gene": "ZSWIM9", "two-siRNA summed score (-2 to +2)": 0, "mean protection from cisplatin (shift in death) (%)": 14.3, "call": "inactive"}
{"Target gene": "KCTD15", "two-siRNA summed score (-2 to +2)": 0, "mean protection from cisplatin (shift in death) (%)": 12.7, "call": "inactive"}
{"Target gene": "NUMBL", "two-siRNA summed score (-2 to +2)": 1, "mean protection from cisplatin (shift in death) (%)": 10.1, "call": "inactive"}
{"Target gene": "LCE3D", "two-siRNA summed score (-2 to +2)": 0, "mean protection from cisplatin (shift in death) (%)": 18.5, "call": "inactive"}
{"Target gene": "MRRF", "two-siRNA summed score (-2 to +2)": 0, "mean protection from cisplatin (shift in death) (%)": 2.1, "call": "inactive"}
{"Target gene": "ZFP42", "two-siRNA summed score (-2 to +2)": 0, "mean protection from cisplatin (shift in death) (%)": 5.5, "call": "inactive"}
{"Target gene": "H1-5", "two-siRNA summed score (-2 to +2)": 1, "mean protection from cisplatin (shift in death) (%)": 13.8, "call": "inactive"}
{"Target gene": "RHCE", "two-siRNA summed score (-2 to +2)": 0, "mean protection from cisplatin (shift in death) (%)": 2.1, "call": "inactive"}
{"Target gene": "MCM7", "two-siRNA summed score (-2 to +2)": 0, "mean protection from cisplatin (shift in death) (%)": -8.3, "call": "inactive"}
{"Target gene": "BST1", "two-siRNA summed score (-2 to +2)": -2, "mean protection from cisplatin (shift in death) (%)": -14.4, "call": "active"}
{"Target gene": "MRPL41", "two-siRNA summed score (-2 to +2)": 0, "mean protection from cisplatin (shift in death) (%)": 8.8, "call": "inactive"}
{"Target gene": "MRPL57", "two-siRNA summed score (-2 to +2)": 0, "mean protection from cisplatin (shift in death) (%)": 6.6, "call": "inactive"}
{"Target gene": "LYRM7", "two-siRNA summed score (-2 to +2)": 1, "mean protection from cisplatin (shift in death) (%)": 13.4, "call": "inactive"}
{"Target gene": "RBFOX2", "two-siRNA summed score (-2 to +2)": 0, "mean protection from cisplatin (shift in death) (%)": -5.9, "call": "inactive"}
{"Target gene": "LOC388581", "two-siRNA summed score (-2 to +2)": 1, "mean protection from cisplatin (shift in death) (%)": 2.4, "call": "inactive"}
{"Target gene": "DOCK2", "two-siRNA summed score (-2 to +2)": 0, "mean protection from cisplatin (shift in death) (%)": 8.4, "call": "inactive"}
{"Target gene": "PXDN", "two-siRNA summed score (-2 to +2)": 0, "mean protection from cisplatin (shift in death) (%)": -14.2, "call": "inactive"}
{"Target gene": "LOC139116", "two-siRNA summed score (-2 to +2)": 0, "mean protection from cisplatin (shift in death) (%)": 8.2, "call": "inactive"}
{"Target gene": "ABCC8", "two-siRNA summed score (-2 to +2)": 0, "mean protection from cisplatin (shift in death) (%)": -1.1, "call": "inactive"}
{"Target gene": "P4HTM", "two-siRNA summed score (-2 to +2)": 0, "mean protection from cisplatin (shift in death) (%)": -16, "call": "inactive"}
{"Target gene": "DHX38", "two-siRNA summed score (-2 to +2)": 0, "mean protection from cisplatin (shift in death) (%)": 1.3, "call": "inactive"}
{"Target gene": "TINAGL1", "two-siRNA summed score (-2 to +2)": 0, "mean protection from cisplatin (shift in death) (%)": 4.3, "call": "inactive"}
{"Target gene": "COX10", "two-siRNA summed score (-2 to +2)": 2, "mean protection from cisplatin (shift in death) (%)": 19.4, "call": "active"}
{"Target gene": "LOC388327", "two-siRNA summed score (-2 to +2)": 0, "mean protection from cisplatin (shift in death) (%)": 5.1, "call": "inactive"}
{"Target gene": "LOC440685", "two-siRNA summed score (-2 to +2)": 0, "mean protection from cisplatin (shift in death) (%)": 22.7, "call": "inactive"}
{"Target gene": "SMARCE1", "two-siRNA summed score (-2 to +2)": 1, "mean protection from cisplatin (shift in death) (%)": 11.9, "call": "inactive"}
{"Target gene": "AKR7A2", "two-siRNA summed score (-2 to +2)": 0, "mean protection from cisplatin (shift in death) (%)": -4, "call": "inactive"}
{"Target gene": "NELFCD", "two-siRNA summed score (-2 to +2)": 0, "mean protection from cisplatin (shift in death) (%)": 7.1, "call": "inactive"}
{"Target gene": "SPIN1", "two-siRNA summed score (-2 to +2)": 0, "mean protection from cisplatin (shift in death) (%)": 3.3, "call": "inactive"}
